## Screening data, single-dose tests

By UniProt entry, the sequences of proteins in these tests, tags left out. Residues count along the entry.
UniProt P9WNZ1, whole entry: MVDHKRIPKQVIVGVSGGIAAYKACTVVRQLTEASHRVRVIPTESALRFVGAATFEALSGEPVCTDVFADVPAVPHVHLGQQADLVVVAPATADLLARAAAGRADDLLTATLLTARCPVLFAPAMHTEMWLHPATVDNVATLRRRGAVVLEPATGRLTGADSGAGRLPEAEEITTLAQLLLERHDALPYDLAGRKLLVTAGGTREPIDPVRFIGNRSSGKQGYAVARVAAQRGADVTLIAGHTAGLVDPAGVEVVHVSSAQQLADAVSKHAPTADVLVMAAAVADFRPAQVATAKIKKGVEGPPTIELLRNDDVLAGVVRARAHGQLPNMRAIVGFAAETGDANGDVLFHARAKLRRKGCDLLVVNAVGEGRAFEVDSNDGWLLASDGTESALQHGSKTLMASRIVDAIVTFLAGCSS
UniProt Q8IDJ8, 1-583: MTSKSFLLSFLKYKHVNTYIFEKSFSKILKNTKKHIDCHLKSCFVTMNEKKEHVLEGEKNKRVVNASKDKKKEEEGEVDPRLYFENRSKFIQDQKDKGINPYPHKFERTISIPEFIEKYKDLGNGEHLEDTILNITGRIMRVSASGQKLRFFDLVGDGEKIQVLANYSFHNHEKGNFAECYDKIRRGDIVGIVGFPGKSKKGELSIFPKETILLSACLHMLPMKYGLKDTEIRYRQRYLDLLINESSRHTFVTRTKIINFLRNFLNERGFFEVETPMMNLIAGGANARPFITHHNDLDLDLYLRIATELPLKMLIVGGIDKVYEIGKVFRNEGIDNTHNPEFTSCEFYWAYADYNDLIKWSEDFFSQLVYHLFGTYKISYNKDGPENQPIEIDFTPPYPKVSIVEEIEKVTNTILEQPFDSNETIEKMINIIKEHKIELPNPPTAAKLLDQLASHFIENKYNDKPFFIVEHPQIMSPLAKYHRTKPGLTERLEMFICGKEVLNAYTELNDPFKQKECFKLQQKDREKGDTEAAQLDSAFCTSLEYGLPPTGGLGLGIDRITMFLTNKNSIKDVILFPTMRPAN
UniProt A4I591, 1-473: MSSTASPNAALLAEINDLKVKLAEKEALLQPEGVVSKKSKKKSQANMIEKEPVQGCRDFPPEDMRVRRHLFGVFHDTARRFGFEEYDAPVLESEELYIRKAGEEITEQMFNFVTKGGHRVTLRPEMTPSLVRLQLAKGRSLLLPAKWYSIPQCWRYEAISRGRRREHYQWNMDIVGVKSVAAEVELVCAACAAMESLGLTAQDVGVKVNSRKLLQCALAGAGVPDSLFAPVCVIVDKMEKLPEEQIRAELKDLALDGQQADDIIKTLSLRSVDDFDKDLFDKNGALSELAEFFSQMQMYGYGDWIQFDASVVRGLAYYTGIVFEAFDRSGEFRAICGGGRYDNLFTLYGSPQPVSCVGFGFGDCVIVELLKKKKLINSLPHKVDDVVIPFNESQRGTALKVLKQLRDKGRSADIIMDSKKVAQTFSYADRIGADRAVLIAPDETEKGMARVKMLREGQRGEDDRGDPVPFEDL

CoaBC: 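Coenzyme A biosynthesis protein CoaBC, Mycobacterium tuberculosis (UniProt P9WNZ1). Enzyme assay of CoaBC with a phosphate dye (Biomol Green) read at 650 nm. Compounds at 30 µM. Direction is inferred from only a few compounds that gave an IC50; most scored high, so higher reads as stronger inhibition. Most strong results did not repeat in a second test. Of about 67,000 compounds tested this way, about 40 (0.06%) reached 50% or more in at least one test.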
PfKRS1: 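Lysine-tRNA ligase, Plasmodium falciparum 3D7 (UniProt Q8IDJ8). Enzyme assay of the cytosolic lysyl-tRNA synthetase in 384-well plates, read by luminescence. Compounds at 30 µM. Direction is inferred from only a few compounds that gave an IC50; most scored high, so higher reads as stronger inhibition. About 69,000 compounds were tested under these conditions; 0.071% (about 49) showed 50% or more at least once.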
LiHisRS: 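Histidine-tRNA ligase, Leishmania infantum (UniProt A4I591). Enzyme assay of histidyl-tRNA synthetase; the read-out is not stated. Compounds at 30 µM. Higher reads as stronger inhibition (inferred: compounds with an IC50 in retests scored well above the rest). The assay is labelled LdHisRS but filed under L. infantum. About 69,000 compounds were tested under these conditions; 0.6% (about 410) showed 50% or more at least once.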

The filed quantity is “Percent Effect” (%). The controls that fix the scale are not given in the record; negative values are as filed. This is an unselected part of the compounds tested.

CCOc1ccc(S(=O)(=O)Nc2cnc(OC)nc2OC)cc1 gave CoaBC: 4.642%; PfKRS1: 2.551%; LiHisRS: -1.695%.
c1ccc(C2CN(c3ncnc4[nH]cnc34)CCO2)cc1 (centres undefined) gave CoaBC: 0.7453%; PfKRS1: 4.486%; LiHisRS: 14.29%.
CCc1ccc(C(C)NC(=O)N2CCC(n3cncn3)CC2)cc1 (centres undefined) gave CoaBC: 6.888%; PfKRS1: 1.371%; LiHisRS: 9.091%.
CN1C(=O)CC(c2cnn(C)c2)C12CCN(C(=O)c1ccc[nH]1)CC2 (centres undefined) gave CoaBC: -4.303%; PfKRS1: 6.709%; LiHisRS: 22%.
CC(C)Cc1nc(OCC#N)c(C#N)c2c1CCC2 gave CoaBC: -0.2545%; PfKRS1: -0.6001%; LiHisRS: 12.82%.
CCc1c(C)nc(C2CCCN2C(=O)c2cc(C)no2)nc1O (centres undefined) gave CoaBC: 5.882%; PfKRS1: -0.3258%; LiHisRS: 17.71%.
c1cncc(CNc2cncc(C3CCCN3)n2)c1 (centres undefined) gave CoaBC: -0.8589%; PfKRS1: 1.516%; LiHisRS: 21.28%.
Cc1cnn(CCNCC(O)COc2ccc(Cl)cc2Cl)c1 (centres undefined) gave CoaBC: 0.7874%; PfKRS1: -0.8682%; LiHisRS: 8.475%.
O=S(=O)(NCC(O)c1ccc(C(F)(F)F)cc1)C1CC1 (centres undefined) gave CoaBC: -5.285%; PfKRS1: 3.61%; LiHisRS: -3.478%.
CO[C@H]1CCN(Cc2cccs2)[C@@H]2CN(Cc3ccncc3)C[C@H]12 gave CoaBC: 2.683%; PfKRS1: 3.978%; LiHisRS: 9.434%.
CC(C)Oc1ccccc1C(=O)NC1CC(=O)N(CC(F)(F)F)C1 (centres undefined) gave CoaBC: 6.38%; PfKRS1: 1.479%; LiHisRS: 10%.
COC(=O)COc1c(F)cc(Br)cc1C(C)=O gave CoaBC: -1.488%; PfKRS1: 3.134%; LiHisRS: 10.2%.

For reference, 2 entries once more:

For Cc1cnn(CCNCC(O)COc2ccc(Cl)cc2Cl)c1 (centres undefined) the result was CoaBC: 0.7874%; PfKRS1: -0.8682%; LiHisRS: 8.475%.
For CCc1c(C)nc(C2CCCN2C(=O)c2cc(C)no2)nc1O (centres undefined) the result was CoaBC: 5.882%; PfKRS1: -0.3258%; LiHisRS: 17.71%.

Source: ChEMBL document CHEMBL3988442, “University of Dundee, Small-Polar-MMV Screening Library” (2021).